Results are given in words; binding and its absence hold for the method and conditions named. In cells and extracts the contact can be indirect. Some results given as binding are weak or reduced against the parent protein; the word gives no strength.
Molecular target: T1, Thioredoxin-interacting protein (TXNIP) (human (endogenous in ARPE-19)) (UniProt Q9H3M7)
T1 sequence: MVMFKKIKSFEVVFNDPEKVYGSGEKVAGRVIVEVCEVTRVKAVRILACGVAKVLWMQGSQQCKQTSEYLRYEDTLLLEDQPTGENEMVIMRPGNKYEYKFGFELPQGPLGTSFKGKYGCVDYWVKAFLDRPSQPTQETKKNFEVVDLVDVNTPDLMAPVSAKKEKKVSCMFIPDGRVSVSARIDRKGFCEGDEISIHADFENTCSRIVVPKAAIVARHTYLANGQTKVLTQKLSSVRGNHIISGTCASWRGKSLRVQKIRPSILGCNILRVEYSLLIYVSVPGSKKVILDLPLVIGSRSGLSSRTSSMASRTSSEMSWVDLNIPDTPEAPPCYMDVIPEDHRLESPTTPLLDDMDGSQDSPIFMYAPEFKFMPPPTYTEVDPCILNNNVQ
Assay: co-IP; RPE cell lysates in RIPA buffer, precleared; anti-TXNIP antibody, protein A agarose, 4 °C; western blot (Supplementary Fig. 3b)

binding: binds
Substance: p53 (from UniProt P04637 1-393)

— PMC6802648
